Among the data in the supplement of paper PMC12873370 are cell viability values, retold here.

Values joined by “and” are separate entries in the source; they are usually repeats but may differ in a detail not shown here. Equal values may be shown once. The list shows a part of the results. Many values rest on one well or one pass, so single values are uncertain.

In experiment [1] the test system is MEPP (mouse ovarian epithelium Trp53/Pten KO). Put plainly: cell viability relative to untreated (fraction); higher = less growth inhibition. As to conditions: 5 µM; 3 days.
Experiment [2] has as its system PREPP (mouse prostate epithelium Trp53/Pten KO). The description is as above. The settings on record: 5 µM; 3 days.

As to `C[C@@H](O[C@H]1OCCN(Cc2nn(P(=O)(O)O)c(=O)[nH]2)[C@H]1c1ccc(F)cc1)c1cc(C(F)(F)F)cc(C(F)(F)F)c1`, the cell viability in experiment [1] was 0.734; in experiment [2], 0.877.
In the case of `CCCCCCCCCCCCCCCC(=O)O`, the cell viability was 0.913 in experiment [1] and 0.963 in experiment [2].
With `Nc1ncnc2c1ncn2[C@@H]1O[C@H](COP(=O)(O)O)[C@@H](O)[C@H]1O`, the cell viability in experiment [1] was 0.958; in experiment [2] it was 0.955.
In the same order, the values of `O=C(O)C1CCC(O)CC1` (stereo not given) are 0.843 and 1.2.
Turning to `COc1c(O)c(OC)c(/C=C/c2ccc(O)cc2)c(OC)c1O`, the cell viability in experiment [1] came to 0.929; in experiment [2] it was 0.879.
For `O=C(O)c1ccoc1`, the cell viability in experiment [1] stood at 0.968; in experiment [2] it was 1.1.
For `O=C(O)CCCCCCCCCCCCCCC(=O)O` the same measures were 1.35 and 0.659.
As to `O=C(O)CCCCCC(=O)O`, the cell viability in experiment [1] is 0.905; in experiment [2], 0.976.
Turning to `N=C(N)N`, the cell viability turned out to be 0.922 in experiment [1] and 0.817 in experiment [2].
In the same order, the values of `N#CC(c1ccc(Cl)cc1)c1c(Cl)cc(-n2ncc(=O)[nH]c2=O)cc1Cl` (stereo not given) are 1.08 and 0.827.
Turning to `CCCC(=O)c1c(O)c(Cc2c(O)c(Cc3c(O)c(C)c(OC)c(C(=O)CCC)c3O)c(O)c(C(=O)[C@@H](C)CC)c2O)c(O)c(C)c1OC`, the cell viability in experiment [1] turned out to be 0.911; in experiment [2], 1.46.
In the same order, the values of `CCCCCOC(=O)Nc1nc(=O)n([C@@H]2O[C@H](C)[C@@H](O)[C@H]2O)cc1F` are 1.04 and 0.981.
In the same order, the values of `C[C@@H]1O[C@@H](O[C@H]2[C@H](Oc3cc(O)c4c(=O)cc(-c5ccc(O)cc5)oc4c3)O[C@H](CO)[C@@H](O)[C@@H]2O)[C@H](O)[C@H](O)[C@H]1O` are 0.98 and 0.943.
In the same order, the values of `CCCCCCCC/C=C/CCCCCCCC(=O)O` are 0.95 and 0.885.
Consider `COC(=O)C1=CO[C@@H](O)[C@@H]2C(CO)=CC[C@H]12`, for which the cell viability in experiment [1] stood at 0.982; in experiment [2] it was 0.774.
For the molecule `CC(=O)CCc1ccc(O)cc1`, the cell viability was determined as 1.01 in experiment [1] and 1.04 in experiment [2].
As to `C[C@H](N)C(=O)O.N[C@@H](Cc1ccc(O)cc1)C(=O)O`, the values for the cell viability in experiment [1] and in experiment [2] were 0.925 and 0.981, respectively.
For `O[C@@H]1[C@H](O)[C@H](O)CO[C@H]1O` the same measures were 1.09 and 0.947.
In the same order, the values of `CC1=C[C@H](O)CC(C)(C)[C@H]1/C=C/C(C)=C/C=C/C(C)=C/C=C/C=C(C)/C=C/C=C(C)/C=C/C1=C(C)C[C@@H](O)CC1(C)C` are 0.934 and 0.927.
In the same order, the values of `C=C1CC[C@@H]2[C@](C)(CO)[C@H](O)CC[C@@]2(C)[C@H]1C/C=C1\C=COC1=O` are 1.84 and 1.
As for `C[C@@H]1O[C@@H](O[C@@H]2[C@@H](O)[C@H](OCCc3ccc(O)c(O)c3)O[C@H](CO)[C@H]2OC(=O)/C=C/c2ccc(O)c(O)c2)[C@H](O)[C@H](O)[C@H]1O`, the cell viability was 0.783 in experiment [1] and 0.954 in experiment [2].
In the same order, the values of `O=c1c(O)c(-c2ccc(O)cc2)oc2cc(O)cc(O)c12` are 1.31 and 1.
`Oc1cccc(O)c1O`: the results for the cell viability in experiment [1] and in experiment [2] were 1.18 and 0.875, respectively.
For `CN1C(C(=O)Nc2ccccn2)=C(O)c2sc(Cl)cc2S1(=O)=O` the same measures were 0.94 and 0.95.
Turning to `C[C@]12CC[C@@H]3c4ccc(O)cc4CC[C@H]3[C@@H]1CC[C@@H]2O`, the cell viability was 1.09 and 0.669 in experiment [1]; 0.843 and 0.892 in experiment [2].
As to `CO[C@H]1O[C@@H]2O[C@@]3(C)CC[C@H]4[C@H](C)CC[C@@H]([C@H]1C)[C@@]24OO3`, the figures for the cell viability in experiment [1] and in experiment [2] were 1.02 and 0.804, respectively.
On to `Cn1c(=O)c2[nH]cnc2n(C)c1=O`, for which the cell viability was found to be 1.02 in experiment [1] and 0.948 in experiment [2].
Regarding `CC1(C)[C@@H](O)CC[C@]2(C)[C@H]3C(=O)C=C4[C@@H]5C[C@@](C)(C(=O)O)CC[C@]5(C)CC[C@@]4(C)[C@]3(C)CC[C@@H]12`, the cell viability in experiment [1] was 0.911 and 0.853; in experiment [2] it was 1.08 and 0.807.
As to `Nc1nc2c(ncn2[C@@H]2O[C@H](CO)[C@@H](O)[C@H]2O)c(=O)[nH]1`, the cell viability in experiment [1] worked out at 1.42; in experiment [2] it was 1.11.
On to `COc1ccc(CCC(=O)c2c(O)cc(OC3OC(CO)C(O)C(O)C3OC3OC(C)C(O)C(O)C3O)cc2O)cc1O` (stereo not given), for which the values for the cell viability in experiment [1] and in experiment [2] were 1.19 and 1.13, respectively.
In the case of `CCN1CCN(c2cc3c(cc2F)c(=O)c(C(=O)O)cn3C2CC2)CC1`, the cell viability in experiment [1] was determined as 1.14; in experiment [2] it was 0.954.
For `Cc1ccc(C(C)C)cc1O`, the cell viability was found to be 1.15 in experiment [1] and 0.928 in experiment [2].
In the same order, the values of `O=C(O)c1cc2ccccc2oc1=O` are 1.03 and 0.966.
In the same order, the values of `C[n+]1cc2c3c(ccc2c2ccc4cc5c(cc4c21)OCO5)OCO3` are 0.31 and 0.235.
Turning to `O=C(O)[C@@H]1CCCN1`, the cell viability in experiment [1] was 0.943; in experiment [2] it was 1.05.
In the same order, the values of `CCn1cc(C(=O)O)c(=O)c2cc(F)c(N3CCNCC3)nc21` are 0.956 and 1.02.
Consider `O=C(O)c1cc(=O)c2cccc(O)c2[nH]1`, for which the cell viability in experiment [1] was 0.843; in experiment [2] it was 0.837.
In the same order, the values of `O=[N+]([O-])c1cn2c(n1)OC[C@@H](OCc1ccc(OC(F)(F)F)cc1)C2` are 1.14 and 0.738.
For `Cc1cccc(N(C)C(=S)Oc2ccc3ccccc3c2)c1`, the cell viability in experiment [1] came out at 0.93; in experiment [2] it was 0.914.
`C[C@@H]1O[C@@H](O[C@H]2[C@H](OC(=O)[C@]34CCC(C)(C)C[C@H]3C3=CC[C@@H]5[C@@]6(C)C[C@H](O)[C@H](O[C@@H]7O[C@H](CO)[C@@H](O)[C@H](O)[C@H]7O)C(CO)(CO)[C@@H]6CC[C@@]5(C)[C@]3(C)C[C@H]4O)OC[C@H](O)[C@@H]2O)[C@H](O)[C@H](O)[C@H]1O[C@@H]1OC[C@@H](O)[C@H](O[C@@H]2OC[C@](O)(CO)[C@H]2O)[C@H]1O`: the cell viability in experiment [1] came to 0.833; in experiment [2] it was 0.819.
